Taken from: PubChem BioAssay AID686943 (Drosophila RNAi Screening Center, 2013)

Purpose: 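Search across the genome for regulators of signalling from receptor tyrosine kinase to ERK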 (primary screen)
Cell system: Drosophila S2R+ haemocyte-like cells expressing YFP-tagged ERK (Rolled)
Reagent: long dsRNA against Drosophila genes
Conditions: insulin stimulation versus unstimulated cells; dose and duration not given
Read-out: 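Antibody staining for doubly phosphorylated ERK divided by ERK-YFP signal, as plate z-scores, in insulin-treated and untreated cells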
Direction: replicate 1, z-score of dpERK with insulin: higher = more active ERK per ERK-YFP after insulin
The screen tested about 23,000 reagents; this is a random part of those with a known target gene and a result. 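Extra replicates exist only for a retested subset of genes; insulin dose and duration not given; both raised and lowered dpERK matter.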 Reagents against one gene are numbered here. Not all columns of the deposit are shown. No sequences are given here. The record does not give: the amount of reagent, the time to read-out.

CG3164 — replicate 1, z-score of dpERK with insulin: 0.06
CG12766 — replicate 1, z-score of dpERK with insulin: 0.01
CG31624 — replicate 1, z-score of dpERK with insulin: 0.23
CG3251 — replicate 1, z-score of dpERK with insulin: -0.43
CG9098 #1 — replicate 1, z-score of dpERK with insulin: 0.72
CG9098 #2 — replicate 1, z-score of dpERK with insulin: 0.26
CG30047 — replicate 1, z-score of dpERK with insulin: 0.14
CG5122 — replicate 1, z-score of dpERK with insulin: 0.48
ema (endosomal maturation defective) — replicate 1, z-score of dpERK with insulin: -1.21
Peritrophin-15b — replicate 1, z-score of dpERK with insulin: 0.41
Ulp1 — replicate 1, z-score of dpERK with insulin: 0.69
nanos — replicate 1, z-score of dpERK with insulin: 0.33
CG14573 — replicate 1, z-score of dpERK with insulin: 1.3
Dap160 (Dynamin associated protein 160) #1 — replicate 1, z-score of dpERK with insulin: -1.05
Dap160 (Dynamin associated protein 160) #2 — replicate 1, z-score of dpERK with insulin: -0.31
epsilonCOP (Coat Protein (coatomer) epsilon) — replicate 1, z-score of dpERK with insulin: -0.04
CycH (Cyclin H) #1 — replicate 1, z-score of dpERK with insulin: 0.31
CycH (Cyclin H) #2 — replicate 1, z-score of dpERK with insulin: -0.86
CG17826 — replicate 1, z-score of dpERK with insulin: 0.85

Taken from above.
Value for epsilonCOP (Coat Protein (coatomer) epsilon) in “replicate 1, z-score of dpERK with insulin”: -0.04
Result of CycH (Cyclin H) #2 in “replicate 1, z-score of dpERK with insulin”: -0.86
Entry for CG14573 under “replicate 1, z-score of dpERK with insulin”: 1.3
Entry for CG30047 under “replicate 1, z-score of dpERK with insulin”: 0.14
ema (endosomal maturation defective), replicate 1, z-score of dpERK with insulin → -1.21

Further results follow.
Vha16-3 (Vacuolar H[+] ATPase 16kD subunit 3) — replicate 1, z-score of dpERK with insulin: 0.16
ab (abrupt) #1 — replicate 1, z-score of dpERK with insulin: -2.8
ab (abrupt) #2 — replicate 1, z-score of dpERK with insulin: -1.14
g (garnet) — replicate 1, z-score of dpERK with insulin: -0.89
CG1307 — replicate 1, z-score of dpERK with insulin: -0.64
msl-1 (male-specific lethal 1) — replicate 1, z-score of dpERK with insulin: -0.46
asrij — replicate 1, z-score of dpERK with insulin: -0.68
RpL36A (Ribosomal protein L36A) — replicate 1, z-score of dpERK with insulin: -1.01
CG17329 — replicate 1, z-score of dpERK with insulin: -0.42
blot (bloated tubules) #1 — replicate 1, z-score of dpERK with insulin: -0.11
blot (bloated tubules) #2 — replicate 1, z-score of dpERK with insulin: -1.12
CG33769 — replicate 1, z-score of dpERK with insulin: 0.76
CG30001 — replicate 1, z-score of dpERK with insulin: -0.17
Top3beta (Topoisomerase 3beta) — replicate 1, z-score of dpERK with insulin: 0.34
png (pan gu) — replicate 1, z-score of dpERK with insulin: -0.9
ppk6 (pickpocket 6) — replicate 1, z-score of dpERK with insulin: -0.36
tei (teiresias) — replicate 1, z-score of dpERK with insulin: -0.2
CG32532 #1 — replicate 1, z-score of dpERK with insulin: 0.22
CG32532 #2 — replicate 1, z-score of dpERK with insulin: 0.66
CG32532 #3 — replicate 1, z-score of dpERK with insulin: 0.7
CG32532 #4 — replicate 1, z-score of dpERK with insulin: 0.89
